Assay results published in the supplement of paper PMC10032668.
The other results are listed elsewhere or left out. Only hits are listed; about a third recur on repeated control peptides.

Sequences of proteins named here, by UniProt entry; tags and fusion partners are left off.
DLX6, P56179, UniProt P56179, whole entry: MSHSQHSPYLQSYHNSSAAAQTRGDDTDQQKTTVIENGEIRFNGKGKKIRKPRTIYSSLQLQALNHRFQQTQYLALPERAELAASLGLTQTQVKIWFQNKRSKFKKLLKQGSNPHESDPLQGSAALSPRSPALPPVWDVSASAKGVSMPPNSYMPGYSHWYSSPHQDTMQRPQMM
NDUFV1, P49821, UniProt P49821, whole entry: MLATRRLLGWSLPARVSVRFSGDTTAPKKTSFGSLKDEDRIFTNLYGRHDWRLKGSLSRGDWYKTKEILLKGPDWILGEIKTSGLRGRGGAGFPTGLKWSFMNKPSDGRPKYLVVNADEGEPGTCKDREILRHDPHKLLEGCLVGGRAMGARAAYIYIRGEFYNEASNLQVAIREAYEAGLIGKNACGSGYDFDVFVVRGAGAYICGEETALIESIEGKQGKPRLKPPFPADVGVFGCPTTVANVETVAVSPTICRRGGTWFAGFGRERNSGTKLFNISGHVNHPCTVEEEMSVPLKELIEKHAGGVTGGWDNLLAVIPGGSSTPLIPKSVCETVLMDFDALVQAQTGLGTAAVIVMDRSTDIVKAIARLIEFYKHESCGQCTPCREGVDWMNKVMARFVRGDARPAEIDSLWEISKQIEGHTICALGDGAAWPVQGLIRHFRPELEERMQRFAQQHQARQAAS

B1: NRSN2 (peptide)
chain: MRKLRPRKVEALV
B2: CYHR1 (peptide)
chain: MGTWNLGLLECRA

Columns and labels:
Assay in all cases: PRISMA enrichment of interactor (LFQ) in peptide spot vs all other peptide spots (log2 fold change); higher = stronger / more specific binding of the interactor to the peptide
[1] = target: AKR1A1, P14550
Experimental: (§1)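 PRISMA: 221 full-length sORF-encoded peptides (3-15 aa), plus SOS1/GLUT1 control peptides, were spot-synthesized on cellulose membranes in triplicate. Membranes were incubated with HEK293T lysate, and bound proteins were identified by LC-MS/MS with LFQ. Enrichment is the log2 fold change versus all other peptide spots; only significant interactors are listed (cutoff c=6, x0=2.8).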

[2] = target: ANP32B, Q92688
Experimental: as §1

[3] = target: ANP32E, Q9BTT0
Experimental: as §1

[4] = target: ASNA1, O43681
Experimental: as §1

[5] = target: MRPL38, Q96DV4
Experimental: as §1

[6] = target: NAP1L1, P55209
Experimental: as §1

[7] = target: STAG2, Q8N3U4
Experimental: as §1

[8] = target: STXBP3, O00186
Experimental: as §1

[9] = target: AKIRIN1, Q9H9L7
Experimental: as §1

[10] = target: DLX6, P56179
Experimental: as §1

[11] = target: ERCC3, P19447
Experimental: as §1

[12] = target: FBXO21, O94952
Experimental: as §1

[13] = target: LMBR1, Q8WVP7
Experimental: as §1

[14] = target: NDUFV1, P49821
Experimental: as §1

[15] = target: NECAP2, Q9NVZ3
Experimental: as §1

[16] = target: NUBP2, Q9Y5Y2
Experimental: as §1

[17] = target: PINX1, Q96BK5
Experimental: as §1

[18] = target: PPP4R3A, Q6IN85
Experimental: as §1

[19] = substrate: SON, P18583
Experimental: as §1

[20] = target: SPTSSA, Q969W0
Experimental: as §1

[21] = target: THOC1, Q96FV9
Experimental: as §1

[22] = target: UBXN1, Q04323
Experimental: as §1

| Binder | PRISMA enrichment of interactor (log2) [1] | PRISMA enrichment of interactor (log2) [2] | PRISMA enrichment of interactor (log2) [3] | PRISMA enrichment of interactor (log2) [4] | PRISMA enrichment of interactor (log2) [5] | PRISMA enrichment of interactor (log2) [6] | PRISMA enrichment of interactor (log2) [7] | PRISMA enrichment of interactor (log2) [8] | PRISMA enrichment of interactor (log2) [9] | PRISMA enrichment of interactor (log2) [10] | PRISMA enrichment of interactor (log2) [11] | PRISMA enrichment of interactor (log2) [12] | PRISMA enrichment of interactor (log2) [13] | PRISMA enrichment of interactor (log2) [14] | PRISMA enrichment of interactor (log2) [15] | PRISMA enrichment of interactor (log2) [16] | PRISMA enrichment of interactor (log2) [17] | PRISMA enrichment of interactor (log2) [18] | PRISMA enrichment of interactor (log2) [19] | PRISMA enrichment of interactor (log2) [20] | PRISMA enrichment of interactor (log2) [21] | PRISMA enrichment of interactor (log2) [22] |
| --- | --- | --- | --- | --- | --- | --- | --- | --- | --- | --- | --- | --- | --- | --- | --- | --- | --- | --- | --- | --- | --- | --- |
| B1 | 4.85 | 7.02 | 7.12 | 5.32 | 5.41 | 5.78 | 5.82 | 11.6 | – | – | – | – | – | – | – | – | – | – | – | – | – | – |
| B2 | – | – | – | – | – | – | – | – | 13.3 | 5.67 | 5.25 | 5.04 | 5.69 | 5.58 | 7.54 | 10.2 | 5.99 | 4.26 | 4.65 | 6.04 | 7.75 | 6.81 |
